Source: article PMC9935853

Protein sequences, listed by entry. Tags and fused reporters are not part of them. Lines headed by an entry give the natural chain unless they say otherwise; changes in a name come on top.
UniProt O94705: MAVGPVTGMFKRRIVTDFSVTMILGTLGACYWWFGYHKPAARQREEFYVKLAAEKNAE

Molecular target: T1, S. pombe cytochrome c oxidase subunit Cox5 with a C-terminal twin-strep tag (S. pombe) (UniProt O74988)
T1 sequence: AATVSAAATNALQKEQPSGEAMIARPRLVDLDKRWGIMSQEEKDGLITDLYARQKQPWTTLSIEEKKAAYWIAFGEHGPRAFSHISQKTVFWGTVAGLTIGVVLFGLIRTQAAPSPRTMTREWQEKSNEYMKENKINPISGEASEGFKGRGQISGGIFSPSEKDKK
Experiment: cryo-EM structure; CIV purified through Cox5-2xstrep in GDN (25 mM KH2PO4 pH 8.0, 150 mM KCl, 0.01% GDN), ~4 mg/ml on grids; map at 3.4 Å overall

binding	Substance
binds	S. pombe cytochrome c oxidase subunit Cox9 (from UniProt O94705)
binds	S. pombe cytochrome c oxidase subunit Cox6

No constants are given. Whether binding was seen depends on the method and setting. A result given as binding can be weak or reduced; the word gives no strength. Where a sequence is shown, tags or fusion partners need not be part of it.
